Test results reported in patent US7311743B2, “Biofiltration apparatus and method for reducing methyl bromide concentration in a volume of gas” (Energy Resource Institute, Inc., priority 2004, dated 2007).

Tested on: methyl bromide-degrading bacteria
Test: Methyl bromide removal in the biotrickling filter
Details: for Elimination capacity / Outlet concentration: EBRT = 94 s
Source text: A biotrickling filter was constructed as schematically represented in FIG. 2. The apparatus included three packed bed sections filled with lava rock, perlite or polyurethane as packing materials. Other equipment included an air supply, a methyl bromide supply, recycle liquid circulation, a nutrient supply (as a complete mineral medium), and a pH control by automatic addition of NaOH. The biotrickling filter was usually operated at standard conditions as specified in Table 1.
Cultures of methyl bromide-degrading bacteria were obtained by inoculating or exposing the substrate component of the apparatus with a variety of natural sources or materials, such as soil and sediment. A continuous supply of a low concentration (about 0 to about 10 g/m^3) of methyl bromide was supplied to the apparatus. The first signs of methyl bromide removal were observed after about 6-12 days of operation of the apparatus. The methyl bromide elimination capacity seemed to reach a maximum value after about 35-40 days of operation. During operation, the pH in the recycle liquid declined, small amounts of bromide were produced in the recycle liquid, and the CO2 concentration in the outlet air increased.
The fate of methyl bromide in the biotrickling filter was determined by comparing the rate of methyl bromide removal with the rates of CO2 production, bromide ion production and NaOH consumption as expected from the biodegradation reaction stoichiometry. Biodegradation of methyl bromide and pH control occur according to the following reactions 2CH3Br+3O2→2HBr+2 CO2+2H2O Equation 3 HBr+NaOH→NaBr+H2O Equation 4
The effect of the liquid recycle or trickling rate was examined at the lower and higher end of the range of recycle rates commonly employed in biotrickling filters. Methyl bromide removal was the same at a trickling rates of 2.55 and 22.2 L/h, corresponding to superficial liquid velocities of 2.0 and 17.7 m/h, respectively (Table 2).
The maximum elimination capacity of methyl bromide in the biotrickling filter was determined by stepwise increasing the methyl bromide concentration. Depending on the inlet concentration, the following phases can be distinguished: […]

[1] = gas flow cocurrent, inlet 3.042 g/m^3
[2] = gas flow countercurrent (standard operation), inlet 3.713 g/m^3
[3] = superficial liquid velocity 2.0 m/h (standard operation), inlet 2.927 g/m^3
[4] = superficial liquid velocity 17.7 m/h, inlet 2.927 g/m^3

SMILES: CBr [Methyl bromide]
- Elimination capacity [1]: 73.3 g/m^3 · h
- Outlet concentration [1]: 1.122 g/m^3
- Elimination capacity [2]: 98.6 g/m^3 · h
- Outlet concentration [2]: 1.130 g/m^3
- Removed methyl bromide recovered as CO2 (molar carbon basis, inlet concentrations 0-5.5 g/m^3): 95%
- Bromide ion production relative to the amount of methyl bromide removed (on average, inlet concentrations 0-5.5 g/m^3): 108%
- Elimination capacity [3]: 99.8 g/m^3 · h
- Outlet concentration [3]: 0.312 g/m^3
- Elimination capacity [4]: 102.3 g/m^3 · h
- Outlet concentration [4]: 0.249 g/m^3
